Test results from PubChem BioAssay AID1671190 (National Center for Advancing Translational Sciences (NCATS), 2021).
In all, about 580,000 compounds went through this assay and about 6,100 (1.1%) were called active. The shares of active, inactive and inconclusive entries below differ from those in the screen. Calls follow the shape of the dose curve; as a rule, active = well fitted inhibition curve with a large enough effect; inconclusive = small, poorly fitted or top-dose-only effect, or another doubt; inactive = no such curve, though single readings can be large or run the other way. A potency beside an inconclusive call is a rough fit, not a confirmed value.

Amino acid sequences for entries named in this document (tags omitted). A change or cut given only in a name is not applied to a line headed by its entry.
UniProt P18054: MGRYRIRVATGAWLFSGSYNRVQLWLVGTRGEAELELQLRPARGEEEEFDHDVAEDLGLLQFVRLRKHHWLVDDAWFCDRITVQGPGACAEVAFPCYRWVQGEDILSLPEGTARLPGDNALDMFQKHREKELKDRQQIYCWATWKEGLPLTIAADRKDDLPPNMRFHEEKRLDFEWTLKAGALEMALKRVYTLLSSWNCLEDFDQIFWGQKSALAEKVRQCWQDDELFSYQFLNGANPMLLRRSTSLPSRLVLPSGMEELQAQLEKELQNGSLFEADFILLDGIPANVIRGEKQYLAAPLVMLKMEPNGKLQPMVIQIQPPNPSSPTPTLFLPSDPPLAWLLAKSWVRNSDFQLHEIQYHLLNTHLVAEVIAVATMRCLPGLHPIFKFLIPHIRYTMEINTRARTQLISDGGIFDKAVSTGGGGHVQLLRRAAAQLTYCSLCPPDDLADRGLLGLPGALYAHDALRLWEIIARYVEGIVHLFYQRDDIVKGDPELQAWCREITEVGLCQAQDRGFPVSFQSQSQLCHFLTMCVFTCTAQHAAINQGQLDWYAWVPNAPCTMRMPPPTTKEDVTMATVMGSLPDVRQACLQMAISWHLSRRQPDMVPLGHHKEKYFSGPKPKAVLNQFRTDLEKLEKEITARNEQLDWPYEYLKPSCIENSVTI

biological target: Polyunsaturated fatty acid lipoxygenase ALOX12 (Homo sapiens) (UniProt P18054); experiment: Primary qHTS assay for inhibitors of human arachidonate 12S-lipoxygenase (ALOX12): Round 2; conditions: purified 12hLO, xylenol orange hydroperoxide absorbance; activity change, negative = inhibition: at 108 µM (top of the series) unless noted
How it was run: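 Hydroperoxide product was detected by ferrous iron/xylenol orange as the 573 to 405 nm absorbance ratio. Arachidonic acid at 40 uM (final) was turned over for 30 min at room temperature by 150 nM human 12hLO, pH 7.0 Hepes buffer, after 15 min compound preincubation.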
% is scaled to controls: 0 for no effect and ±100 for the full control effect; potency is read from the fitted curve at half-maximal effect.

SMILES | Potency | activity change, negative = inhibition
CCCCn1c(N)c(N(CCOC)C(=O)c2oc3ccc(Br)cc3c2C)c(=O)[nH]c1=O | inconclusive: 89.1 µM [inhibitor, partial curve, poor fit] | –
Cc1nn(-c2ccccc2)c(C)c1CN(C)C(=O)CNC(=O)c1ccc(Cl)cc1 | inactive | –
Cc1ccc(NC(=O)c2ccccc2C(F)(F)F)c(F)c1 | inconclusive: 50.1 µM [inhibitor, partial curve, poor fit] | –
CC(C)C(=O)N1Cc2ccccc2CC2(CCCN(CC3CCOCC3)C2)C1 (stereo not given) | – | inactive: 7.81% [at 12.5 µM]
Cc1ccc(F)c([C@H]2[C@@H]3C=CCC[C@@]3(C)C(=O)N2Cc2ccccc2)c1 | inconclusive: 50.1 µM [inhibitor, partial curve, poor fit] | –
CCc1ccc(NC(=O)C(=O)NCCN2CCN(Cc3ccc([N+](=O)[O-])cc3)CC2)cc1 | inactive | –
CCCS(=O)(=O)NC(=O)C1(C)CCN(C(=O)c2ccccc2OC(C)=O)C1 (stereo not given) | inconclusive: 35.5 µM [inhibitor, partial curve] | –
O=C(CCc1nc(CSc2nc3ccccc3o2)no1)Nc1ccc2ccccc2c1 | inactive | –
COc1cc(/C=C/C(=O)c2nc3ccccc3s2)cc(OC)c1 | inconclusive: 112 µM [inhibitor, single point] | –
O=C(/C=C/c1ccccc1)c1cc2cc(Br)ccc2oc1=O | inactive | –
COc1ccc(C(=O)NCC(c2cccs2)S(=O)(=O)c2ccc(F)c(C)c2)cc1 (stereo not given) | inconclusive: 44.7 µM [inhibitor, partial curve, poor fit] | –
CO/C([O-])=N/c1c[n+](-c2ccc(Cl)cc2)no1 | active: 25.1 µM | –
Cc1ccc(-c2cc(-c3ccccc3)nc(N)c2C#N)o1 | inconclusive: 22.4 µM [inhibitor, partial curve, poor fit] | –
COc1ccc(C/C(C)=N/NC(=S)Nc2ccc(C)c(C)c2)cc1 | inconclusive: 56.2 µM [inhibitor, partial curve, poor fit] | –
Cc1c(OCC(=O)NC(Cc2ccc(Cl)cc2)C(=O)O)ccc2c1oc(=O)c1ccccc12 (stereo not given) | inconclusive: 50.1 µM [inhibitor, partial curve, poor fit] | –
O=C(CN1C(=O)NC(c2ccc(Cl)cc2)C2=C1COC2=O)Nc1ccc(F)c(Cl)c1 (stereo not given) | active: 7.94 µM | –
CCOc1ncccc1C(=O)Nc1cc2c(cc1Br)OCCO2 | inconclusive: 126 µM [inhibitor, single point] | –
CCCCNC(=S)NC1CCCC1 | inactive | –
C/C(N)=C(/C#N)C(=O)CSc1cc(C)c2cc(C)cc(C)c2n1 | inconclusive: 12.6 µM [inhibitor, partial curve, poor fit] | –
CCc1nnsc1C(=O)NCC1(c2ccc(F)cc2)CCCC1 | inconclusive: 100 µM [inhibitor, single point] | –
C/C(=N\NC(=O)CSc1nc2ccccc2s1)c1ccco1 | inactive | –
CC(O)(c1ccncc1)c1nc(-c2cccc(C(F)(F)F)c2)cs1 (stereo not given) | inactive | –

SMILES | Potency | activity change, negative = inhibition
CN1C(=O)c2ccccc2Sc2ccc(NC(=O)Cc3c(F)cccc3Cl)cc21 | inconclusive: 126 µM [inhibitor, partial curve, poor fit] | –
CCOCCn1c(COc2ccccc2)nc2ccccc21 | inconclusive: 56.2 µM [inhibitor, partial curve, poor fit] | –
c1ccc(-c2nc(-c3ccc4c(c3)OCCCO4)cs2)nc1 | inconclusive: 2 µM [inhibitor, full curve, poor fit] | –
C[C@@H]1O[C@@H](OCCC(=O)O)[C@H](O)C[C@H]1O | inactive | –
Clc1ccc(-c2cnc(-c3ccncc3)o2)cc1 | inconclusive: 2.51 µM [inhibitor, full curve, poor fit] | –
CN(CC(=O)NCc1ccccc1Cl)CC(=O)Nc1ccccc1Br | inconclusive: 15.8 µM [inhibitor, partial curve, poor fit] | –
C=CCONC(=O)Cc1ccccc1 | inconclusive: 126 µM [inhibitor, single point] | –
CCOc1ccc(CN2CCN(c3ncnc4scc(-c5ccccc5)c34)CC2)cc1 | inconclusive: 7.08 µM [inhibitor, full curve] | –
COc1ccc(-c2cc(C(=O)N(C)CC(=O)Nc3ccccc3Br)c3ccccc3n2)cc1OC | inconclusive: 56.2 µM [inhibitor, partial curve, poor fit] | –
O=C1c2ccc(Oc3cccc([N+](=O)[O-])c3)cc2C(=O)N1c1ccccn1 | inactive | –
O=C1/C(=C/c2ccc(Br)cc2)Oc2cc(O)ccc21 | inconclusive: 70.8 µM [inhibitor, partial curve, poor fit] | –
COCCn1nnnc1C(c1ccc(Cl)cc1)N1CCN(C(=O)c2ccco2)CC1 (stereo not given) | inconclusive: 56.2 µM [inhibitor, partial curve, poor fit] | –
CCOc1cc(OCC)cc(C(=O)N2CCC[C@H]2C(=O)N2CCC[C@H]2C(=O)N(C)Cc2ccccc2)c1 | inconclusive: 79.4 µM [inhibitor, partial curve, poor fit] | –
C#CCn1c(/C=C/c2ccc(Cl)cc2)nc2ccccc21 | inconclusive: 5.62 µM [inhibitor, full curve] | –
Brc1c(OCCOCCn2cncn2)ccc2ccccc12 | inactive | –
Cc1ccc2nc(NC(=O)CCc3ncc(-c4ccccc4Cl)o3)sc2c1 | inconclusive: 44.7 µM [inhibitor, partial curve, poor fit] | –
O=C(NCc1nnc2c3ccccc3c(-c3ccccc3)nn12)c1ccc(Cl)cc1 | inactive | –
CN(CC/C=C1/c2ccccc2CSc2ccccc21)CCCO | inconclusive: 12.6 µM [inhibitor, partial curve, poor fit] | –
Cc1ccsc1C(=O)NNC(=O)Nc1ccc(Cl)c(Cl)c1 | inconclusive: 0.355 µM [inhibitor, full curve, poor fit] | –
O=C(CSc1nnc(Cn2nnc(-c3ccccc3)n2)n1-c1ccccc1)Nc1ccc(F)cc1 | inactive | –
CC#CCN1c2ccccc2[C@]23C[C@@H](C(=O)OC)N(C(=O)C4CCC4)C2=NC(C(=O)OC)=C(C(=O)OC)[C@H]13 | inconclusive: 5.62 µM [inhibitor, full curve, poor fit] | –
O=C(c1ccco1)N1CCN(c2ccc(N3CCCCC3)nn2)CC1 | inconclusive: 3.16 µM [inhibitor, full curve, poor fit] | –

SMILES | Potency | activity change, negative = inhibition
Cc1ccccc1NC(=O)N1CCCC(c2nc(-c3ccc(F)cc3)no2)C1 (stereo not given) | inactive | –
O=C1NCc2ccccc2CC12CCN(Cc1ccc(Cl)o1)C2 (stereo not given) | inconclusive: 28.2 µM [inhibitor, full curve] | –
CCN(c1ccc(OC)cc1)S(=O)(=O)c1nnc(NC(=O)COc2ccc(F)cc2)s1 | inactive | –
CCOC(=O)c1ccc2ncc(C(=O)OCC)c(NCCCOC(=O)c3cccnc3)c2c1 | inactive | –
O=C(CNS(=O)(=O)c1ccc(F)cc1)N1CCN(c2ccccc2)CC1 | inconclusive: 50.1 µM [inhibitor, partial curve, poor fit] | –
COc1ccc(-c2nc(CS(=O)CC(=O)NC3CCCc4ccccc43)c(C)o2)cc1OC (stereo not given) | inactive | –
COC(=O)[C@H]1[C@@H]2C[C@H]3c4[nH]c5ccccc5c4CCN3C[C@@H]2CC[C@@H]1O | inconclusive: 22.4 µM [inhibitor, single point] | –
CCCCCC(=O)Nc1nc2c(s1)C[C@@H]1[C@](C)(CO)[C@H](O)CC[C@@]1(C)[C@@H]2CC(=O)NCc1cc(F)cc(F)c1 | inactive | –
CCn1c2ccccc2c2cc(CN3CCN(S(=O)(=O)Cc4ccccc4)CC3)ccc21 | inconclusive: 1.58 µM [inhibitor, full curve, poor fit] | –
Cc1ccc(CN2CCN(c3cc(C)nc(N)n3)CC2CCO)cc1 (stereo not given) | inconclusive: 31.6 µM [inhibitor, partial curve, poor fit] | –
CC(C)(C)C(=O)NC(NC(=S)Nc1sc2c(c1C#N)CCCC2)C(Cl)(Cl)Cl (stereo not given) | inconclusive: 12.6 µM [inhibitor, full curve] | –
C/C=C/c1ccc(OCCCCn2cncn2)c(OC)c1 | inconclusive: 0.562 µM [inhibitor, full curve, poor fit] | –
CN(C)c1ccc(NC(=O)CN2C(=O)c3ccccc3C2=O)cc1 | inconclusive: 0.0794 µM [inhibitor, full curve, poor fit] | –
C[C@@H]1CN([C@H](C)CO)C(=O)c2cc(NC(=O)Nc3ccc(C(F)(F)F)cc3)ccc2O[C@H]1CN(C)S(=O)(=O)c1ccccc1 | inconclusive: 39.8 µM [inhibitor, partial curve, poor fit] | –
N#Cc1cccc(S(=O)(=O)N2CCCCC2C(=O)N2CCCC2)c1 (stereo not given) | inactive | –
Cc1cccc(-c2nc(SCC(=O)NCC3CCCO3)c3c(=O)n(C)c(=O)n(C)c3n2)c1 (stereo not given) | inactive | –
COc1ccccc1/C=C/C(=O)OCC(=O)c1c[nH]c2ccccc12 | inactive | –
O=C(COC(=O)CCNS(=O)(=O)c1ccc(F)c(Cl)c1)Nc1ccc(Cl)cc1Cl | inconclusive: 44.7 µM [inhibitor, partial curve, poor fit] | –
CNc1ccc(Br)cc(C(=O)/C=C/c2ccc(OC)cc2)c1=O | active: 31.6 µM | –
COc1ccc(N2CCN(C(=O)C3CC(O)CN3S(=O)(=O)c3ccc([N+](=O)[O-])cc3)CC2)cc1 (stereo not given) | inconclusive: 15.8 µM [inhibitor, full curve, poor fit] | –
N#C/C(=C/c1ccc(O)cc1)c1nc2ccccc2o1 | inconclusive: 44.7 µM [inhibitor, partial curve, poor fit] | –

A different layout for part of the listing above.
SMILES	Potency	activity change, negative = inhibition
COc1ccc(-c2nc(CS(=O)CC(=O)NC3CCCc4ccccc43)c(C)o2)cc1OC (stereo not given)	inactive	–
Cc1cccc(-c2nc(SCC(=O)NCC3CCCO3)c3c(=O)n(C)c(=O)n(C)c3n2)c1 (stereo not given)	inactive	–
COc1ccc(N2CCN(C(=O)C3CC(O)CN3S(=O)(=O)c3ccc([N+](=O)[O-])cc3)CC2)cc1 (stereo not given)	inconclusive: 15.8 µM [inhibitor, full curve, poor fit]	–
